Data from PMC4506495.
The exact form of at least one protein or probe is not confirmed. For some assays here: At least one verdict rests on a figure or table, not on a statement of the authors. Tags and fusion partners may be left off the protein sequences shown.

Key:
[1] = target: T1, MgFur in DNA co-crystals (Magnetospirillum gryphiswaldense MSR-1) (UniProt V6F4Q0); test: X-ray crystallography; conditions: Mn2+, PDB among 4RAY-4RB3, not assigned in text, recombinant protein
T1 sequence (looked up, limits assumed): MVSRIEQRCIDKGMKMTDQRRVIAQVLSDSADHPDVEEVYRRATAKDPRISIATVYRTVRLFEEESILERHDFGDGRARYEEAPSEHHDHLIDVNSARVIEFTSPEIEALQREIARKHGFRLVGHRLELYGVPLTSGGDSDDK

[2] = target: T1, MgFur in DNA co-crystals (Magnetospirillum gryphiswaldense MSR-1); test: size-exclusion chromatography; conditions: 1 mM Mn2+; recombinant protein
[3] = target: T2, MgFur WT (Magnetospirillum gryphiswaldense MSR-1) (UniProt V6F4Q0); test: SPR; conditions: 1 mM Mn2+; SPR: 20 mM Tris-HCl pH 8.0, 150 mM NaCl, 1 mM MnCl2, 0.005% Tween20, 25 C; recombinant protein
T2 sequence (looked up, limits assumed): T1 sequence (looked up, limits assumed)

Sequence: CGCGATAATGATAATCATTATCCGC (double strand) [P. aeruginosa Fur box (crystal)]
- binding result ([1]; two dimers per DNA, 2.75 A): binds
- binding result [2]: binds

Sequence: TTAATTGCAAATCATTTGCAATTGC (double strand)
- binding result ([1]; one dimer per DNA, 2.6 A): binds
- binding result [2]: binds

Sequence: TTAATTGCAAATCATTTGCAATTGC (double strand) [mutated feoAB1 operator (SPR)]
- Kd [3]: 73.2 nM
